From patent US6413730
Results are given in words; binding and its absence hold for the method and conditions named. In cells and extracts the contact can be indirect. Some results given as binding are weak or reduced against the parent protein; the word gives no strength. Tags and fused reporters may be left off the sequences shown.

Legend:
[1] = target: T1, human Elk-L (hElk-L), full length (human) (UniProt P98172); experiment: pull-down from Cos-1 lysates with Nuk-Fc plus protein A sepharose, anti-phosphotyrosine blot
T1 sequence (tyrosine phosphorylated in some experiments (sites not mapped), looked up): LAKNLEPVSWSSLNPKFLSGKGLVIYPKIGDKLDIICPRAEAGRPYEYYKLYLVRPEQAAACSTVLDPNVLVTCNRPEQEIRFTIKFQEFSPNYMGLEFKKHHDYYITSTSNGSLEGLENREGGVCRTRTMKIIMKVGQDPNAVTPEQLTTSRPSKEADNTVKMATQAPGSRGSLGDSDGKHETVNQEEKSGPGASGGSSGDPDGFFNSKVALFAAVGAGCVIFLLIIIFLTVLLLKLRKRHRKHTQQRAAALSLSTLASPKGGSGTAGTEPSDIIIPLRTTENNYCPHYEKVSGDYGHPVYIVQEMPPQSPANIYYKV

[2] = target: T1, human Elk-L (hElk-L), full length (human); experiment: pull-down from Cos-1 lysates with 10 µg Nuk-Fc plus protein A sepharose, anti-phosphotyrosine blot

binding [1]: binds
binding [2]: binds
B1: Nuk extracellular domain IgG fusion protein (Nuk-Fc) (Fc fusion, UniProt P54763 19-543, looked up, not shown: a dimerising Fc or GST)
chain: VEETLMDSTTATAELGWMVHPPSGWEEVSGYDENMNTIRTYQVCNVFESSQNNWLRTKFIRRRGAHRIHVEMKFSVRDCSSIPSVPGSCKETFNLYYYEADFDLATKTFPNWMENPWVKVDTIAADESFSQVDLGGRVMKINTEVRSFGPVSRNGFYLAFQDYGGCMSLIAVRVFYRKCPRIIQNGAIFQETLSGAESTSLVAARGSCIANAEEVDVPIKLYCNGDGEWLVPIGRCMCKAGFEAVENGTVCRGCPSGTFKANQGDEACTHCPINSRTTSEGATNCVCRNGYYRADLDPLDMPCTTIPSAPQAVISSVNETSLMLEWTPPRDSGGREDLVYNIICKSCGSGRGACTRCGDNVQYAPRQLGLTEPRIYISDLLAHTQYTFEIQAVNGVTDQSPFSPQFASVNITTNQAAPSAVSIMHQVSRTVDSITLSWSQPDQPNGVILDYELQYYEKELSEYNATAIKSPTNTVTVQGLKAGAIYVFQVRARTVAGYGRYSGKMYFQTMTEAEYQTSIKEKLPL
